{"source": "PubChem BioAssay AID652272 (Drosophila RNAi Screening Center, 2013)", "test": "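Genome-wide knock-down search for components of Hedgehog signalling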 (primary screen)", "cell system": "Drosophila clone 8 (Cl8) cells", "reagent": "long dsRNA against Drosophila genes", "measurement": "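Firefly light from a Hedgehog-responsive ptc promoter reporter and Renilla reference light, both read on a plate reader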", "direction": "firefly Hh reporter signal: higher = more ptc reporter light; Renilla reference signal: higher = more Renilla control light", "rule for the call": "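Called a hit if the two-replicate mean z-score lies below -2 or above +3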", "calls": "active = hit: reporter lowered or raised; inactive = not a hit", "note": "The deposit covers about 21,000 reagents; shown is a random part of those with a known target gene and a result. In the full data, 503 (2.4%) were called active. 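Raw plate light values, not normalised; calls rest on replicate z-scores that were not deposited; hits include reporter decreases as well as increases.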 Reagents against one gene are numbered here. Not given: the amount of reagent, the time to read-out."}
{"Gene": "cv-2 (GeneID 45280)", "reagent no.": 1, "firefly Hh reporter signal, replicate 1": 1.54e5, "firefly Hh reporter signal, replicate 2": 2.33e5, "Renilla reference signal, replicate 1": 4209, "Renilla reference signal, replicate 2": 11104, "Call": "inactive"}
{"Gene": "cv-2 (GeneID 45280)", "reagent no.": 2, "firefly Hh reporter signal, replicate 1": 69523, "firefly Hh reporter signal, replicate 2": 1.14e5, "Renilla reference signal, replicate 1": 1829, "Renilla reference signal, replicate 2": 7732, "Call": "inactive"}
{"Gene": "Cpr47Eg (GeneID 36196)", "reagent no.": 1, "firefly Hh reporter signal, replicate 1": 74432, "firefly Hh reporter signal, replicate 2": 45498, "Renilla reference signal, replicate 1": 2151, "Renilla reference signal, replicate 2": 3493, "Call": "inactive"}
{"Gene": "CG10073 (GeneID 37225)", "reagent no.": 1, "firefly Hh reporter signal, replicate 1": 1.01e5, "firefly Hh reporter signal, replicate 2": 67917, "Renilla reference signal, replicate 1": 2723, "Renilla reference signal, replicate 2": 4969, "Call": "inactive"}
{"Gene": "UQCR-C1 (GeneID 41800)", "reagent no.": 1, "firefly Hh reporter signal, replicate 1": 1.02e5, "firefly Hh reporter signal, replicate 2": 93364, "Renilla reference signal, replicate 1": 4951, "Renilla reference signal, replicate 2": 3525, "Call": "inactive"}
{"Gene": "Rab5 (GeneID 33418)", "reagent no.": 1, "firefly Hh reporter signal, replicate 1": 1.13e5, "firefly Hh reporter signal, replicate 2": 71905, "Renilla reference signal, replicate 1": 3120, "Renilla reference signal, replicate 2": 2290, "Call": "inactive"}
{"Gene": "CG7627 (GeneID 34148)", "reagent no.": 1, "firefly Hh reporter signal, replicate 1": 66779, "firefly Hh reporter signal, replicate 2": 93522, "Renilla reference signal, replicate 1": 3056, "Renilla reference signal, replicate 2": 3612, "Call": "inactive"}
{"Gene": "Cht12 (GeneID 246535)", "reagent no.": 1, "firefly Hh reporter signal, replicate 1": 1.10e5, "firefly Hh reporter signal, replicate 2": 2.36e5, "Renilla reference signal, replicate 1": 7538, "Renilla reference signal, replicate 2": 9749, "Call": "inactive"}
{"Gene": "Rpn9 (GeneID 42802)", "reagent no.": 1, "firefly Hh reporter signal, replicate 1": 52251, "firefly Hh reporter signal, replicate 2": 62629, "Renilla reference signal, replicate 1": 3108, "Renilla reference signal, replicate 2": 2983, "Call": "inactive"}
{"Gene": "CG11373 (GeneID 50152)", "reagent no.": 1, "firefly Hh reporter signal, replicate 1": 83622, "firefly Hh reporter signal, replicate 2": 1.18e5, "Renilla reference signal, replicate 1": 3371, "Renilla reference signal, replicate 2": 3344, "Call": "inactive"}
{"Gene": "CG40198 (GeneID 3354922)", "reagent no.": 1, "firefly Hh reporter signal, replicate 1": 4.97e5, "firefly Hh reporter signal, replicate 2": 2.22e5, "Renilla reference signal, replicate 1": 30475, "Renilla reference signal, replicate 2": 5241, "Call": "inactive"}
{"Gene": "Plzf (GeneID 34622)", "reagent no.": 1, "firefly Hh reporter signal, replicate 1": 93568, "firefly Hh reporter signal, replicate 2": 41447, "Renilla reference signal, replicate 1": 4274, "Renilla reference signal, replicate 2": 2003, "Call": "inactive"}
{"Gene": "plum (GeneID 43197)", "reagent no.": 1, "firefly Hh reporter signal, replicate 1": 58812, "firefly Hh reporter signal, replicate 2": 1.08e5, "Renilla reference signal, replicate 1": 1523, "Renilla reference signal, replicate 2": 2864, "Call": "inactive"}
{"Gene": "Nuak (GeneID 41256)", "reagent no.": 1, "firefly Hh reporter signal, replicate 1": 57842, "firefly Hh reporter signal, replicate 2": 87991, "Renilla reference signal, replicate 1": 1485, "Renilla reference signal, replicate 2": 2349, "Call": "inactive"}
{"Gene": "Nuak (GeneID 41256)", "reagent no.": 2, "firefly Hh reporter signal, replicate 1": 1.19e5, "firefly Hh reporter signal, replicate 2": 90660, "Renilla reference signal, replicate 1": 5111, "Renilla reference signal, replicate 2": 3698, "Call": "inactive"}
{"Gene": "Nuak (GeneID 41256)", "reagent no.": 3, "firefly Hh reporter signal, replicate 1": 92461, "firefly Hh reporter signal, replicate 2": 1.36e5, "Renilla reference signal, replicate 1": 2281, "Renilla reference signal, replicate 2": 4221, "Call": "inactive"}
{"Gene": "l(1)G0020 (GeneID 31811)", "reagent no.": 1, "firefly Hh reporter signal, replicate 1": 1.13e5, "firefly Hh reporter signal, replicate 2": 2.43e5, "Renilla reference signal, replicate 1": 2710, "Renilla reference signal, replicate 2": 9430, "Call": "inactive"}
{"Gene": "CG4041 (GeneID 31422)", "reagent no.": 1, "firefly Hh reporter signal, replicate 1": 1.08e5, "firefly Hh reporter signal, replicate 2": 1.87e5, "Renilla reference signal, replicate 1": 3729, "Renilla reference signal, replicate 2": 7352, "Call": "inactive"}
{"Gene": "CG13436 (GeneID 37334)", "reagent no.": 1, "firefly Hh reporter signal, replicate 1": 1.07e5, "firefly Hh reporter signal, replicate 2": 42452, "Renilla reference signal, replicate 1": 3440, "Renilla reference signal, replicate 2": 2733, "Call": "inactive"}
{"Gene": "CG14355 (GeneID 41723)", "reagent no.": 1, "firefly Hh reporter signal, replicate 1": 1.22e5, "firefly Hh reporter signal, replicate 2": 1.23e5, "Renilla reference signal, replicate 1": 5680, "Renilla reference signal, replicate 2": 5042, "Call": "inactive"}
{"Gene": "CG8738 (GeneID 35855)", "reagent no.": 1, "firefly Hh reporter signal, replicate 1": 88445, "firefly Hh reporter signal, replicate 2": 43754, "Renilla reference signal, replicate 1": 2229, "Renilla reference signal, replicate 2": 3511, "Call": "inactive"}

2 entries from above, set out differently.
Rab5 (GeneID 33418)
- firefly Hh reporter signal, replicate 1: 1.13e5
- firefly Hh reporter signal, replicate 2: 71905
- Renilla reference signal, replicate 1: 3120
- Renilla reference signal, replicate 2: 2290
- Call: inactive

CG7627 (GeneID 34148)
- firefly Hh reporter signal, replicate 1: 66779
- firefly Hh reporter signal, replicate 2: 93522
- Renilla reference signal, replicate 1: 3056
- Renilla reference signal, replicate 2: 3612
- Call: inactive
